Measured data: PubChem BioAssay AID504791 (Drosophila RNAi Screening Center, 2011)
In all, the deposit lists about 23,000 reagents; this is a random part of those that have a named target and a result. Over the whole deposit, 199 (0.86%) are marked active. 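Plate-scaled ratios behind the calls are not deposited; printed light signals are raw; many rows marked increased or decreased are still called inactive.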 Entries without a mark were called inactive. Reagents against one gene are numbered here. Names joined by + are all predicted targets of the reagent.

- Aim: 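Genes of the fly required for silencing by miRNA, siRNA or endo-siRNA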 (primary screen)
- Cell system: Drosophila S2-derived reporter cells
- Reagents: long dsRNA against Drosophila genes, about 150-250 ng dsRNA per well (siRNA assay); about 80-120 ng (miRNA assay)
- Duration: about 5 days (siRNA assay); about 4 days (miRNA assay)
- Conditions: copper sulfate induction of reporters: 25 µM (siRNA assay); 200 mM stated (miRNA assay), 1-2 days before reading
- Measurement: 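Dual luciferase assay: Renilla to firefly signal ratio in each well, scaled to the mean ratio of its plate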
- Direction: siRNA reporter hit score: higher = 3 marks a strong hit with raised ratio; -3 a strong hit with lowered ratio
- Hit rule: 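a well was a first-pass pick when its plate-scaled ratio rose above 1.5 (siRNA assay) or 1.6 (miRNA assay), or dropped below 0.6; a gene counted only if two separate dsRNAs agreed on retest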

| gene | reagent | siRNA reporter hit score | stable siRNA reporter change | miRNA reporter change | stable assay Renilla, run 1 (luminescence) | stable assay firefly, run 1 (luminescence) |
| --- | --- | --- | --- | --- | --- | --- |
| CG15711 | 1 | – | – | – | 6027 | 2.47e5 |
| Arf4 (ADP ribosylation factor 4) | 1 | – | – | – | 4204 | 2.61e5 |
| Fancl | 1 | – | – | – | 7855 | 6.96e5 |
| CG5890 | 1 | – | – | – | 7134 | 3.56e5 |
| CG13476 | 1 | – | – | – | 7954 | 5.08e5 |
| Cyp304a1 (Cytochrome P450 304a1) | 1 | – | – | – | 7307 | 4.99e5 |
| gsb-n (gooseberry-neuro) | 1 | – | – | – | 5274 | 5.73e5 |
| gsb-n (gooseberry-neuro) | 2 | – | – | – | 5311 | 4.51e5 |
| CG30008 | 1 | – | – | – | 9759 | 5.41e5 |
| CG8028 | 1 | – | – | – | 5560 | 3.59e5 |
| Bruce (BIR repeat containing ubiquitin-conjugating enzyme) | 1 | – | – | – | 7822 | 3.88e5 |
| sov (small ovary) | 1 | – | reporter ratio lowered past the hit cutoff | – | 11317 | 1.59e6 |
| fend (forked end) | 1 | – | – | – | 4744 | 4.73e5 |
| fend (forked end) | 2 | – | – | – | 4822 | 4.31e5 |
| Rox8 | 1 | – | – | – | 5395 | 2.85e5 |
| SdhD (Succinate dehydrogenase, subunit D) | 1 | – | – | – | 6774 | 4.90e5 |
| rtv (retroactive) | 1 | – | – | – | 7916 | 3.86e5 |
| Aplip1 (APPL-interacting protein 1) | 1 | – | – | – | 5672 | 5.70e5 |
| Aplip1 (APPL-interacting protein 1) | 2 | – | – | – | 5995 | 3.19e5 |
| Aplip1 (APPL-interacting protein 1) | 3 | – | – | – | 8959 | 5.92e5 |
| fd96Ca (forkhead domain 96Ca) | 1 | – | – | – | 6871 | 3.99e5 |
| Arl2 (ADP ribosylation factor-like 2) | 1 | – | – | – | 6702 | 4.75e5 |
| SrpRalpha (Signal recognition particle receptor alpha) | 1 | – | – | – | 8474 | 6.44e5 |
| CG6527 | 1 | – | – | – | 5754 | 5.57e5 |
| CG7465 | 1 | – | – | – | 6198 | 4.23e5 |
| CG7465 | 2 | – | – | – | 8972 | 5.23e5 |
| Csas (CMP-sialic acid synthase) | 1 | – | – | – | 4259 | 4.77e5 |
| CG1738 | 1 | – | – | – | 6078 | 5.46e5 |
| Spn47C (Serpin 47C) | 1 | – | – | – | 8180 | 4.84e5 |
| su(r) (suppressor of rudimentary) | 1 | – | – | – | 7730 | 4.17e5 |
| Cyp12a4 (Cytochrome P450 12a4) | 1 | – | – | – | 6468 | 3.06e5 |
| Remo (Remoulade) | 1 | – | – | – | 7238 | 6.92e5 |
| CG12617 | 1 | – | – | – | 7547 | 5.65e5 |
| Rpt4R (Regulatory particle triple-A ATPase 4-related) | 1 | – | – | – | 4791 | 3.18e5 |
| Etl1 | 1 | – | – | – | 13177 | 6.06e5 |
| CG31677 | 1 | – | – | – | 8714 | 5.43e5 |
| sds22 | 1 | – | – | – | 6507 | 3.68e5 |
| mRpL55 (mitochondrial ribosomal protein L55) | 1 | – | reporter ratio lowered past the hit cutoff | – | 6856 | 5.76e5 |
| CG4476 | 1 | – | – | – | 7542 | 5.61e5 |
| CG31226 | 1 | – | – | – | 8942 | 6.19e5 |
| Tektin-C (Tektin C) | 1 | – | – | – | 6496 | 3.85e5 |
| Ercc1 | 1 | – | – | – | 8259 | 3.18e5 |
| tra (transformer) | 1 | – | – | – | 8138 | 3.50e5 |
| CG30127 (retired record) | 1 | – | – | – | 6138 | 3.85e5 |
| CG30127 (retired record) | 2 | – | – | – | 6075 | 4.32e5 |
| PIG-Wb (Phosphatidylinositol glycan anchor biosynthesis class W b) | 1 | – | – | – | 6952 | 3.58e5 |
| cer (crammer) | 1 | – | – | – | 6510 | 3.61e5 |
| CG7330 | 1 | – | – | – | 7356 | 3.43e5 |
| CG7330 | 2 | – | – | – | 7951 | 4.55e5 |
| Cyp6v1 (Cytochrome P450 6v1) | 1 | – | – | – | 6043 | 3.72e5 |
| Ctf4 (Chromosome transmission fidelity 4) | 1 | – | – | – | 8459 | 4.51e5 |
| CG8321 | 1 | – | – | – | 8575 | 3.42e5 |
| CG31262 | 1 | – | – | – | 5934 | 5.99e5 |
| CG9281 | 1 | – | – | – | 7516 | 4.35e5 |
| CG32984 | 1 | – | – | – | 9758 | 4.69e5 |
| Hrd3 (HMG-coA reductase degradation 3) | 1 | – | – | – | 8546 | 4.74e5 |
| CG1503 | 1 | 3 | reporter ratio raised past the hit cutoff | – | 11957 | 3.86e5 |
| CG13605 | 1 | – | – | – | 8483 | 3.31e5 |
| CG34357 | 1 | – | – | – | 7963 | 3.38e5 |
| CG34357 | 2 | – | – | – | 5350 | 2.38e5 |
| CG34357 | 3 | – | – | – | 6662 | 3.32e5 |
| CG34357 | 4 | – | – | – | 3976 | 2.93e5 |
| SCAP (SREBP cleavage activating protein) | 1 | – | – | – | 7139 | 3.58e5 |
| SCAP (SREBP cleavage activating protein) | 2 | – | – | – | 7435 | 3.87e5 |
| OtopLa (Otopetrin-like a) | 1 | – | – | – | 4279 | 3.61e5 |
| OtopLa (Otopetrin-like a) | 2 | – | – | – | 5263 | 3.48e5 |
| OtopLa (Otopetrin-like a) | 3 | – | – | – | 5298 | 2.94e5 |
| Cpr62Bc (Cuticular protein 62Bc) | 1 | – | – | – | 4894 | 2.85e5 |
| CG11882 | 1 | – | – | – | 5750 | 3.64e5 |
| wun2 (wunen-2) | 1 | – | – | – | 6704 | 3.89e5 |
| CG14471 (retired record) | 1 | – | – | – | 11287 | 1.36e6 |
| CG2070 | 1 | – | – | – | 6072 | 3.74e5 |
| w (white) | 1 | – | – | – | 8696 | 3.97e5 |
| w (white) | 2 | – | – | – | 7283 | 3.38e5 |
| CG33270 | 1 | – | – | – | 5480 | 4.00e5 |
| Liprin-alpha | 1 | – | – | – | 9657 | 6.42e5 |
| CG8079 | 1 | – | – | – | 10097 | 5.28e5 |
| CG8079 | 2 | – | – | – | 5024 | 2.57e5 |
| CG32440 | 1 | – | – | – | 5771 | 4.57e5 |
| LysS (Lysozyme S) | 1 | – | – | – | 6278 | 3.07e5 |
| Lrr47 (Leucine-rich repeat 47) | 1 | – | reporter ratio lowered past the hit cutoff | reporter ratio lowered past the hit cutoff | 7454 | 7.79e5 |
| CG9330 | 1 | – | – | – | 7543 | 3.47e5 |
| Amt (Ammonium transporter) | 1 | – | – | – | 6763 | 3.07e5 |
| spg (sponge) | 1 | – | – | – | 5602 | 3.19e5 |
| spg (sponge) | 2 | – | – | – | 5367 | 3.93e5 |
| Pgant3 (Polypeptide N-Acetylgalactosaminyltransferase 3) | 1 | – | – | – | 32907 | 2.20e6 |
| TkR86C (Tachykinin-like receptor at 86C) | 1 | – | – | – | 6900 | 3.91e5 |
| Catsup (Catecholamines up) | 1 | – | – | – | 6668 | 4.71e5 |
| pen-2 (presenilin enhancer) | 1 | – | – | – | 6879 | 3.97e5 |
| Snmp2 (Sensory neuron membrane protein 2) | 1 | – | – | – | 6350 | 3.76e5 |
| Snmp2 (Sensory neuron membrane protein 2) | 2 | – | – | – | 6668 | 3.75e5 |
| CG1827 | 1 | – | – | – | 7758 | 3.90e5 |
| l(2)SH0834 (lethal (2) SH0834) | 1 | – | – | – | 7298 | 3.42e5 |
| CG11635 + spaw | 1 | – | – | – | 6530 | 3.51e5 |
| CG14195 | 1 | – | – | – | 5070 | 3.35e5 |
| Vha16-5 (Vacuolar H[+] ATPase 16kD subunit 5) | 1 | – | – | – | 8822 | 6.08e5 |
| Sgs1 (Salivary gland secretion 1) | 1 | – | – | – | 8791 | 4.03e5 |
| Sgs1 (Salivary gland secretion 1) | 2 | – | – | – | 5123 | 4.66e5 |
| CG34265 | 1 | – | – | – | 5855 | 5.51e5 |
| Cmpk (Cytidine/uridine monophosphate kinase 1) | 1 | – | – | – | 6387 | 3.73e5 |
| CG10947 | 1 | – | – | – | 9573 | 2.45e6 |
| Mct1 (Monocarboxylate transporter 1) | 1 | – | – | – | 6219 | 3.78e5 |
| CG11345 | 1 | – | – | – | 6167 | 4.96e5 |
| CG9316 | 1 | – | – | – | 7638 | 3.83e5 |
| CG12128 + CG1407 | 1 | – | – | – | 7766 | 4.40e5 |
| alpha-Man-Ic (alpha-Mannosidase class I c) | 1 | – | – | – | 8864 | 4.86e5 |

Reformatted: entries from further up
gene	reagent	siRNA reporter hit score	stable siRNA reporter change	miRNA reporter change	stable assay Renilla, run 1 (luminescence)	stable assay firefly, run 1 (luminescence)
OtopLa (Otopetrin-like a)	1				4279	3.61e5
OtopLa (Otopetrin-like a)	2				5263	3.48e5
OtopLa (Otopetrin-like a)	3				5298	2.94e5
Cpr62Bc (Cuticular protein 62Bc)	1				4894	2.85e5
CG11882	1				5750	3.64e5
wun2 (wunen-2)	1				6704	3.89e5
CG14471 (retired record)	1				11287	1.36e6
